Test results published in the supplement of paper PMC10849652.
Some of the results follow.

Protein sequences, listed by entry. Tags and fused reporters are not part of them. Lines headed by an entry give the natural chain unless they say otherwise; changes in a name come on top.
UniProt P60510: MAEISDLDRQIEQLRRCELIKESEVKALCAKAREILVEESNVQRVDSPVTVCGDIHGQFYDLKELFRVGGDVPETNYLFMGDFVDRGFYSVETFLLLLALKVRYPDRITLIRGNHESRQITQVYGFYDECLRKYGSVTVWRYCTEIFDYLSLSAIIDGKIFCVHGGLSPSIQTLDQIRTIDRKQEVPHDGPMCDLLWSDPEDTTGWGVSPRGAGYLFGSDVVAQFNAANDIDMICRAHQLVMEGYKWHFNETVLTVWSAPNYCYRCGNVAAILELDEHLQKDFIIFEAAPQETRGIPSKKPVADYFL
UniProt O14744, whole entry, looked up: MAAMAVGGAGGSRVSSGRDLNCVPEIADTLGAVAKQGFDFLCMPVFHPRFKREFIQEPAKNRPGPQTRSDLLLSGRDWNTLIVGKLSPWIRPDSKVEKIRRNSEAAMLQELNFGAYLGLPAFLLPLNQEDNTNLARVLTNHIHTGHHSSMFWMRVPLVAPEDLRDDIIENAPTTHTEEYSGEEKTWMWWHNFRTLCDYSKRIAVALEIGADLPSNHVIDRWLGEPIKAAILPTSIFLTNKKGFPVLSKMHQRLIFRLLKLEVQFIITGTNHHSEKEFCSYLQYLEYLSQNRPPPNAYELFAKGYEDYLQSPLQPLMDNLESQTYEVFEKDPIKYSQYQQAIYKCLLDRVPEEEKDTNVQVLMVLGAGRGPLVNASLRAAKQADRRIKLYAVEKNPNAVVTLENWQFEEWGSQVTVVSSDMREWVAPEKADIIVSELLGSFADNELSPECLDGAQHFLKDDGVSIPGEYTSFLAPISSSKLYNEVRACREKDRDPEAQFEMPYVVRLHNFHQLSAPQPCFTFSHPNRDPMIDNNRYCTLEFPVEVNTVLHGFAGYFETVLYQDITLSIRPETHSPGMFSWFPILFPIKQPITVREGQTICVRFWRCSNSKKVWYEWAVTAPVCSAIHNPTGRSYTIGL
UniProt P67775, whole entry, looked up: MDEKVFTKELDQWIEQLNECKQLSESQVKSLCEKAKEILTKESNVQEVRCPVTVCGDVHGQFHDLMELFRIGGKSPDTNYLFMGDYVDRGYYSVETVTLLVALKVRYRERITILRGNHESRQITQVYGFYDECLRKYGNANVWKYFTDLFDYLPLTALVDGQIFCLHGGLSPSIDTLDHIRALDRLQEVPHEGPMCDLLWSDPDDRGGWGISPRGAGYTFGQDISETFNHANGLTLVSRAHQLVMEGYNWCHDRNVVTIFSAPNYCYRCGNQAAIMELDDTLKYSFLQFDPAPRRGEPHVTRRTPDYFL
UniProt P48634: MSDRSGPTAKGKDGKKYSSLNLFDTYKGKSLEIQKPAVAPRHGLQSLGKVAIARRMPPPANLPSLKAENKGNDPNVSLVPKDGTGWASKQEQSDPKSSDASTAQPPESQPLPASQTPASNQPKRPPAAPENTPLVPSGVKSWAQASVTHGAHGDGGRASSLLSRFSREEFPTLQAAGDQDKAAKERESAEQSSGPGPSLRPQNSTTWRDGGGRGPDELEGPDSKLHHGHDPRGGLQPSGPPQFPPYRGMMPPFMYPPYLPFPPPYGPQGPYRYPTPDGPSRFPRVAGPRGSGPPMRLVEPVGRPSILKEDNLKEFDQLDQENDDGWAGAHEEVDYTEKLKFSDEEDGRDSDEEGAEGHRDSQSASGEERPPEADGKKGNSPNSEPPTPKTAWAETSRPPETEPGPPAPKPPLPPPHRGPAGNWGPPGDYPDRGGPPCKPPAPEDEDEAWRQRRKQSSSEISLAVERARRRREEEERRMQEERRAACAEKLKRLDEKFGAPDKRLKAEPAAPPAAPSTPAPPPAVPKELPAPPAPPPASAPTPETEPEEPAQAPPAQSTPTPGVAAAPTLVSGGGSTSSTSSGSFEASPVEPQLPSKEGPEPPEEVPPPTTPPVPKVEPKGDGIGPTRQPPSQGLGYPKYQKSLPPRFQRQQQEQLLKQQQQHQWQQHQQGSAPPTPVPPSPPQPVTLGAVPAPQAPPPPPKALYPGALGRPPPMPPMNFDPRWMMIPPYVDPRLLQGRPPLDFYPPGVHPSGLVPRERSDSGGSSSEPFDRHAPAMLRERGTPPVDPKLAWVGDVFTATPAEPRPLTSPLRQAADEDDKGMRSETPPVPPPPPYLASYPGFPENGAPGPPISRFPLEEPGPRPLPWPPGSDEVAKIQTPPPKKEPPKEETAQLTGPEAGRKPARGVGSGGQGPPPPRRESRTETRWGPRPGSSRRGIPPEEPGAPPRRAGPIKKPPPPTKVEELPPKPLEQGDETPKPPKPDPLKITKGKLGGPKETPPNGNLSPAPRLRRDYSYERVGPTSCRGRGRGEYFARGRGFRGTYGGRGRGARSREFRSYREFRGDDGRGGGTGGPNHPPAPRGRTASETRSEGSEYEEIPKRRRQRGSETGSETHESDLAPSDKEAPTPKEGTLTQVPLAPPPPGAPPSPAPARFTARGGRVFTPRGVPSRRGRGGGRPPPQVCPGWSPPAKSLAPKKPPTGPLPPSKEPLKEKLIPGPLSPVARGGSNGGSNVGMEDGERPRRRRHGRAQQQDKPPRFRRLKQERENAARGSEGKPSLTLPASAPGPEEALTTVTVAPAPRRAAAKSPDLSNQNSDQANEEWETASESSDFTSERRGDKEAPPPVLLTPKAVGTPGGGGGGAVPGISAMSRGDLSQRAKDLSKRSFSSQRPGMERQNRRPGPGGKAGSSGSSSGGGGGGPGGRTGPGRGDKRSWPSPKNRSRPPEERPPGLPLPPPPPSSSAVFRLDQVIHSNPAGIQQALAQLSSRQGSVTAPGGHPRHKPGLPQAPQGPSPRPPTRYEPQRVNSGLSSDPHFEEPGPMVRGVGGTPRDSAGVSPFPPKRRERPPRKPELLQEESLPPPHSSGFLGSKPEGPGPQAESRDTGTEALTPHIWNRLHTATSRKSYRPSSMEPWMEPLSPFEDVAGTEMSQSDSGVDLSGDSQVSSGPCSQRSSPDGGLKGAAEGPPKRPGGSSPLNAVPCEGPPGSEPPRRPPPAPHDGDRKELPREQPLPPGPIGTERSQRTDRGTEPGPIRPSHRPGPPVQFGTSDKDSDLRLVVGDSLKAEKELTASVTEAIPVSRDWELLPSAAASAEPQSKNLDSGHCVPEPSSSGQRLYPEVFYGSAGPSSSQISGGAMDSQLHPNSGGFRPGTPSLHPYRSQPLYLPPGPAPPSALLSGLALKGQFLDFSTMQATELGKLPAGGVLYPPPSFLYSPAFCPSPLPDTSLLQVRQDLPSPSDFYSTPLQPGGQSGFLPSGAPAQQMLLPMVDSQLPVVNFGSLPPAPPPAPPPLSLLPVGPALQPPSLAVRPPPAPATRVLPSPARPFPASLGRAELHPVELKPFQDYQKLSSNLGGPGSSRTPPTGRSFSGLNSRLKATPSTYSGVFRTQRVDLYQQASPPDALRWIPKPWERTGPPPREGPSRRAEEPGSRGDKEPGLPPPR
UniProt P07225: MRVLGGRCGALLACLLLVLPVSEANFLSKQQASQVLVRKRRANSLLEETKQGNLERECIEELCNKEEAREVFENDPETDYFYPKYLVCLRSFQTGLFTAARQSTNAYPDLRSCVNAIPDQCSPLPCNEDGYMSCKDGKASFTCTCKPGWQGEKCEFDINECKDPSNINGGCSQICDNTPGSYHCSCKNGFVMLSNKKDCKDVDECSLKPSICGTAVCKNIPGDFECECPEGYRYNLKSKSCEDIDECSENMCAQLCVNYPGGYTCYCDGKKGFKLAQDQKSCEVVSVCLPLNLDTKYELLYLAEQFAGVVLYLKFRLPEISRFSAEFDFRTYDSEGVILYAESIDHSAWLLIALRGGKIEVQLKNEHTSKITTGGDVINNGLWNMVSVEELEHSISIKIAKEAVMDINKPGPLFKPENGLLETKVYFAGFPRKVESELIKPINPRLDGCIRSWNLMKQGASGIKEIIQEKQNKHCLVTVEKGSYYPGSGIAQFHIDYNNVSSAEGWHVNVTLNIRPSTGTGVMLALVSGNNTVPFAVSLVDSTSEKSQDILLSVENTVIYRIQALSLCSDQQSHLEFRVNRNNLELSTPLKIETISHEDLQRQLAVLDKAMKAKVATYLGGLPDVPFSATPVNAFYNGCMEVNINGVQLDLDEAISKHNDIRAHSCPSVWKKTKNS
UniProt P62714, whole entry, looked up: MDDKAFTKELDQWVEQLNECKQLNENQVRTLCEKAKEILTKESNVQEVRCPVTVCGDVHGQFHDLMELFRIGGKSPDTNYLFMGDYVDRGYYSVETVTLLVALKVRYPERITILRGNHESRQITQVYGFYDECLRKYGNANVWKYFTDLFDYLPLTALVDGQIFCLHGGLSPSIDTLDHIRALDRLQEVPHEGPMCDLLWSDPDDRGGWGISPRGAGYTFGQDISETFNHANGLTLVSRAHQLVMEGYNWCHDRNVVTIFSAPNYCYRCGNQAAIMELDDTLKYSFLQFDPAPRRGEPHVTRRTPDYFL
UniProt Q9H875: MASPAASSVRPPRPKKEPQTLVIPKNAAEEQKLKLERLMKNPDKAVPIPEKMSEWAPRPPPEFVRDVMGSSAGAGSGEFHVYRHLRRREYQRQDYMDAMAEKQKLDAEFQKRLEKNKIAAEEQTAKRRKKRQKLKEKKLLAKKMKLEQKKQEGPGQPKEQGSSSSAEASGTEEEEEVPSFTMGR
UniProt O43663: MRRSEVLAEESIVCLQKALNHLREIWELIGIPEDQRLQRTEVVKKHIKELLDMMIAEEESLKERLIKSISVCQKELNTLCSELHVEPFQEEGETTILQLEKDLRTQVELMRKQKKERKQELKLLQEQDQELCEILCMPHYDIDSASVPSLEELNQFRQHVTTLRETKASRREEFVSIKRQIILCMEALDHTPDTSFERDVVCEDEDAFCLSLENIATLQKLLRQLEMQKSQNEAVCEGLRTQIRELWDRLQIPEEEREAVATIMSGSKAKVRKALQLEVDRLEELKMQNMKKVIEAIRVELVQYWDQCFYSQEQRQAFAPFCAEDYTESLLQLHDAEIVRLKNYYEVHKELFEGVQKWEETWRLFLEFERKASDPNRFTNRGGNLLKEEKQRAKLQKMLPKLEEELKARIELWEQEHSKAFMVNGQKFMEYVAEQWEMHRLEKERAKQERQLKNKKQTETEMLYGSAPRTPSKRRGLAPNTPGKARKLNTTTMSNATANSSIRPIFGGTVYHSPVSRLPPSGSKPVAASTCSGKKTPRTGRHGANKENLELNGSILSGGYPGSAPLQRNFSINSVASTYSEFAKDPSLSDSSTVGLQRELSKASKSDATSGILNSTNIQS
UniProt P53041: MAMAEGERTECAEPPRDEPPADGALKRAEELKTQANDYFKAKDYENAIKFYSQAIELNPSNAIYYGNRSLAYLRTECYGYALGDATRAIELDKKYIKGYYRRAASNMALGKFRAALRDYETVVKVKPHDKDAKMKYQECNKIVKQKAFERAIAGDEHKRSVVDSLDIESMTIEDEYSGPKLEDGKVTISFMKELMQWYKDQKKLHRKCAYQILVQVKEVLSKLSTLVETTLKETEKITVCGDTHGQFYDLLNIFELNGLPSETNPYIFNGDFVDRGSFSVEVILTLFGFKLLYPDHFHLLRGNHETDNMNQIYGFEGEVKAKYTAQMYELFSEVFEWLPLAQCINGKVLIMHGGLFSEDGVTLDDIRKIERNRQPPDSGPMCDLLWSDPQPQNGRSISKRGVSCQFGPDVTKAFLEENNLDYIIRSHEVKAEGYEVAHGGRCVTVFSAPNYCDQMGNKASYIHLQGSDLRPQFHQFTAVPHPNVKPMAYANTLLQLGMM
UniProt Q9ULR3: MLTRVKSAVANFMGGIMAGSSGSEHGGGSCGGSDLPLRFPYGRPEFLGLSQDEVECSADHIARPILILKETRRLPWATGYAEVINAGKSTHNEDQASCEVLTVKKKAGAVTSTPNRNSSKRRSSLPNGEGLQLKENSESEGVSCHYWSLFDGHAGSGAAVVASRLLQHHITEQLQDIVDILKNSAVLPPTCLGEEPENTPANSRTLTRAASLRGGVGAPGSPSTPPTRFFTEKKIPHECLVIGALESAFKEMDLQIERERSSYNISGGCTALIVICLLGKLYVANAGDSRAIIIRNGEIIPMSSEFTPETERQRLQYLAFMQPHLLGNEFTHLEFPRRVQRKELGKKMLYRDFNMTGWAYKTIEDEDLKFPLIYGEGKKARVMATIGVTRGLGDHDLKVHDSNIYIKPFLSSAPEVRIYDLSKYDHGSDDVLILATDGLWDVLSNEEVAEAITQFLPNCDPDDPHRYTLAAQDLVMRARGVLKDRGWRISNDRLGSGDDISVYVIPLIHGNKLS
UniProt Q13162: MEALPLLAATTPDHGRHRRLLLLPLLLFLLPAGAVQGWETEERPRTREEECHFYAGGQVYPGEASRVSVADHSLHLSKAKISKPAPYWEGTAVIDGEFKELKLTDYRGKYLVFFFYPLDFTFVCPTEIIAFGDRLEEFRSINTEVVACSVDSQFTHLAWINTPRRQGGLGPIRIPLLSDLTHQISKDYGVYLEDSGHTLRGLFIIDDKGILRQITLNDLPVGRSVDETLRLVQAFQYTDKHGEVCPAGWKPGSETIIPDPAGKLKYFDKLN

How the values were obtained:
Assay in all cases: log2 fold change, soluble protein after heating vs DMSO (PISA); higher = thermal stabilisation; K562 cells, 10 uM, 30 min; active = over 0.2 and 3.5 SD of the protein, either way, in both replicates (recomputed)
[1] = compound: CC1=C(C=C(C=C1)NC(=O)C2=CC(=CC=C2)C(C)(C)C#N)NC3=CC4=C(C=C3)N=CN(C4=O)C
Method in brief: (§1)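 Thermal stability values are relative to control samples and come from duplicates. They are expressed as log2 fold changes. For measurement, K562 cells (2×10^6 cells/mL) received 10 μM compound for 30 min, and aliquots were heated for 3 min over 48°C-58°C, pooled, and extracted at 4°C in PBS with 0.5% NP-40. Soluble protein, the supernatant after 21,000xg for 90 min, was quantified by TMTpro 16plex LC-MS/MS with equalised channel sums.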

[2] = compound: CC1=C(C=C(C=C1)NC(=O)C2=CC(=CC=C2)N(C)C)NC(=O)C3=CC=C(C=C3)O
Method in brief: as §1

[3] = compound: CC1=CC=C(C=C1)SC2=C3C=C(SC3=CN=C2)C(=O)N
Method in brief: as §1

[4] = compound: CC1=NC(=CC=C1)C2=C(N=C(N2)C(C)(C)C)C3=CC4=NC=CN=C4C=C3
Method in brief: as §1

Nexturastat A = compound: CCCCN(Cc1ccc(C(=O)NO)cc1)C(=O)Nc1ccccc1 [Nexturastat A]
Method in brief: as §1

vemurafenib = compound: CCCS(=O)(=O)Nc1ccc(F)c(C(=O)c2c[nH]c3ncc(-c4ccc(Cl)cc4)cc23)c1F [vemurafenib]
Method in brief: as §1

[5] = compound: CCCS(=O)(=O)Nc1ccc(F)c(C(=O)c2c[nH]c3ncc(Cl)cc23)c1F
Method in brief: as §1

[6] = compound: CCCc1cc(C)[nH]c(=O)c1CNC(=O)c1cc(-c2ccnc(N3CCN(C)CC3)c2)cc2c1cnn2C(C)C
Method in brief: as §1

givinostat = compound: CCN(CC)Cc1ccc2cc(COC(=O)Nc3ccc(C(=O)NO)cc3)ccc2c1 [givinostat]
Method in brief: as §1

barasertib = compound: CCN(CCCOc1ccc2c(Nc3cc(CC(=O)Nc4cccc(F)c4)[nH]n3)ncnc2c1)CCOP(=O)(O)O [barasertib]
Method in brief: as §1

[7] = compound: CC[C@@H]1C(=O)N(C)c2cnc(Nc3ccc(C(=O)NC4CCN(C)CC4)cc3OC)nc2N1C1CCCC1
Method in brief: as §1

volasertib = compound: CC[C@@H]1C(=O)N(C)c2cnc(Nc3ccc(C(=O)N[C@H]4CC[C@H](N5CCN(CC6CC6)CC5)CC4)cc3OC)nc2N1C(C)C [volasertib]
Method in brief: as §1

[8] = compound: CC[C@H](C)N1C=C(C2=C(C=C(C=C21)C3=CN=C(C=C3)N4CCNCC4)C(=O)NCC5=C(C=C(NC5=O)C)C)C
Method in brief: as §1

epoxomicin = compound: CC[C@H](C)[C@@H](C(=O)N[C@@H]([C@@H](C)O)C(=O)N[C@@H](CC(C)C)C(=O)[C@]1(CO1)C)NC(=O)[C@H]([C@@H](C)CC)N(C)C(=O)C [epoxomicin]
Method in brief: as §1

[9] = compound: CCn1c(C(=O)N(C2CC2)C2CC2)cc2c3c(ncn3C)c(Nc3cc(C)n(C)n3)nc21
Method in brief: as §1

[10] = compound: CCn1cc(-c2ccnc3[nH]c(-c4cccc(CN(C)C)c4)cc23)c(-c2ccc(NC(=O)N(C)C)cc2)n1
Method in brief: as §1

[11] = compound: CN(C)CC(=O)Nc1ccc2[nH]c(=O)c3ccccc3c2c1
Method in brief: as §1

rosiglitazone = compound: CN(CCOC1=CC=C(C=C1)C[C@H]2C(=O)NC(=O)S2)C3=CC=CC=N3 (racemic) [rosiglitazone]
Method in brief: as §1

[12] = compound: CN1C2=C(C3=C1C(=O)N(N=C3)CC4=CC(=CC=C4)N)SC(=C2)S(=O)C
Method in brief: as §1

[13] = compound: CN1CCC(CNc2ccc3ncc(-c4cccc(OC(F)(F)F)c4)n3n2)CC1
Method in brief: as §1

Measured: log2 fold change

PPP4C (UniProt P60510)
inactive: [1] 0.02 | [2] 0.025 | [3] -0.002 | [4] -0.007 | Nexturastat A -0.062 | vemurafenib -0.066 | [5] -0.017 | [6] -0.123 | givinostat 0.024 | barasertib 0.001 | [7] -0.046 | volasertib -0.047 | [8] -0.013 | epoxomicin -0.032 | [9] -0.033 | [10] -0.009 | [11] -0.003 | rosiglitazone 0 | [12] -0.102 | [13] -0.03

PRMT5 (UniProt O14744)
inactive: [1] 0.018 | [2] -0.002 | [3] -0.013 | [4] 0.033 | Nexturastat A -0.03 | vemurafenib -0.015 | [5] -0.018 | [6] -0.004 | givinostat -0.022 | barasertib 0.007 | [7] -0.022 | volasertib 0.088 | [8] -0.009 | epoxomicin 0.019 | [9] -0.014 | [10] 0.004 | [11] 0.001 | rosiglitazone 0.019 | [12] -0.092 | [13] 0.005

PRRC2B (UniProt Q5JSZ5)
inactive: [1] -0.024 | [2] 0.053 | [3] -0.04 | [4] -0.004 | Nexturastat A 0.011 | vemurafenib -0.029 | [5] -0.016 | [6] -0.016 | givinostat 0.013 | barasertib -0.004 | [7] -0.047 | volasertib 0.056 | [8] 0.042 | epoxomicin -0.028 | [9] 0.014 | [10] 0.077 | [11] -0.026 | rosiglitazone 0.013 | [12] 0.048 | [13] 0.052

PPWD1 (UniProt Q96BP3)
inactive: [1] 0.015 | [2] -0.027 | [3] -0.025 | [4] 0.007 | Nexturastat A -0.023 | vemurafenib -0.001 | [5] -0.002 | [6] 0.006 | givinostat 0.008 | barasertib 0.02 | [7] 0.017 | volasertib -0.026 | [8] 0.018 | epoxomicin 0.003 | [9] -0.005 | [10] -0.037 | [11] 0.043 | rosiglitazone 0.047 | [12] -0.09 | [13] -0.024

PPP2CA (UniProt P67775)
inactive: [1] -0.021 | [2] 0.132 | [3] 0.012 | [4] 0.017 | Nexturastat A -0.025 | vemurafenib 0.053 | [5] 0.003 | [6] 0.022 | givinostat -0.152 | barasertib -0.024 | [7] -0.009 | volasertib 0.011 | [8] -0.024 | epoxomicin 0.001 | [9] 0.01 | [10] 0.01 | [11] -0.013 | rosiglitazone 0.032 | [12] -0.014 | [13] 0.002

PPP1R10 (UniProt Q96QC0)
inactive: [1] -0.069 | [2] 0.043 | [3] -0.094 | [4] -0.119 | Nexturastat A 0.341 | vemurafenib -0.08 | [5] -0.049 | [6] 0.112 | givinostat 0.091 | barasertib -0.082 | [7] 0.307 | volasertib 0.142 | [8] -0.019 | epoxomicin -0.184 | [9] -0.024 | [10] 0.149 | [11] -0.085 | rosiglitazone -0.12 | [12] 0.203 | [13] 0.114

PRRC2A (UniProt P48634)
inactive: [1] -0.021 | [2] -0.047 | [3] -0.035 | [4] -0.101 | Nexturastat A 0.18 | vemurafenib -0.084 | [5] -0.046 | [6] 0.053 | givinostat 0.032 | barasertib -0.074 | [7] 0.164 | volasertib 0.157 | [8] -0.024 | epoxomicin -0.182 | [9] 0.006 | [10] 0.163 | [11] -0.074 | rosiglitazone -0.071 | [12] 0.144 | [13] 0.267

PROS1 (UniProt P07225)
inactive: [1] -0.119 | [2] -0.006 | [3] 0.008 | [4] -0.013 | Nexturastat A 0.092 | vemurafenib 0.017 | [5] -0.055 | [6] -0.155 | givinostat -0.005 | barasertib 0.014 | [7] -0.028 | volasertib -0.011 | [8] 0.008 | epoxomicin -0.173 | [9] 0.019 | [10] -0.017 | [11] -0.037 | rosiglitazone -0.008 | [12] 0.077 | [13] -0.081

PPP2CB (UniProt P62714)
inactive: [1] 0.006 | [2] 0.006 | [3] -0.01 | [4] 0 | Nexturastat A -0.011 | vemurafenib 0.006 | [5] -0.012 | [6] -0.016 | givinostat -0.057 | barasertib 0.004 | [7] 0.018 | volasertib 0.021 | [8] -0.023 | epoxomicin -0.027 | [9] -0.024 | [10] 0.015 | [11] -0.033 | rosiglitazone -0.008 | [12] -0.051 | [13] 0.034

PRKRIP1 (UniProt Q9H875)
inactive: [1] 0.022 | [2] 0.023 | [3] 0.015 | [4] 0.011 | Nexturastat A -0.031 | vemurafenib -0.042 | [5] -0.026 | [6] -0.123 | givinostat -0.077 | barasertib -0.033 | [7] 0.153 | volasertib 0.132 | [8] -0.013 | epoxomicin -0.046 | [9] -0.031 | [10] 0 | [11] -0.03 | rosiglitazone -0.013 | [12] 0.031 | [13] 0.102

PRMT1 (UniProt Q99873)
inactive: [1] 0.057 | [2] -0.031 | [3] 0.014 | [4] 0.051 | Nexturastat A -0.073 | vemurafenib 0.013 | [5] 0.046 | [6] -0.083 | givinostat -0.031 | barasertib 0.002 | [7] -0.034 | volasertib -0.019 | [8] 0.017 | epoxomicin 0.016 | [9] -0.002 | [10] -0.079 | [11] -0.017 | rosiglitazone 0.019 | [12] -0.035 | [13] -0.005

PPP1CC isoform 2 (UniProt P36873)
inactive: [1] 0.034 | [2] 0.038 | [3] 0.016 | [4] 0.031 | Nexturastat A -0.033 | vemurafenib 0.006 | [5] 0.006 | [6] 0.036 | givinostat -0.11 | barasertib -0.003 | [7] 0.022 | volasertib 0.021 | [8] 0.024 | epoxomicin -0.024 | [9] -0.027 | [10] -0.001 | [11] 0.002 | rosiglitazone 0.014 | [12] -0.091 | [13] 0

PRC1 (UniProt O43663)
inactive: [1] 0.016

PPP5C (UniProt P53041)
inactive: [1] -0.038 | [2] -0.032 | [3] 0.014 | [4] 0.005 | Nexturastat A -0.042 | vemurafenib 0.029 | [5] 0.064 | [6] -0.014 | givinostat -0.109 | barasertib 0.013 | [7] -0.03 | volasertib -0.056 | [8] 0.033 | epoxomicin 0.021 | [9] -0.004 | [10] 0.005 | [11] 0.011 | rosiglitazone 0.02 | [12] -0.067 | [13] 0.018

PPM1H (UniProt Q9ULR3)
inactive: [1] -0.071 | [2] -0.073 | [3] 0 | [4] 0.07 | Nexturastat A -0.005 | vemurafenib -0.037 | [5] 0.003 | [6] -0.06 | givinostat 0.027 | barasertib 0.011 | [7] 0.073 | volasertib 0.038 | [8] -0.011 | epoxomicin -0.042 | [9] 0.015 | [10] -0.052 | [11] -0.024 | rosiglitazone 0.046 | [12] -0.032 | [13] 0.028

2 successive entries from above, for reference:
PPP1CC isoform 2 (UniProt P36873)
inactive: [1] 0.034 | [2] 0.038 | [3] 0.016 | [4] 0.031 | Nexturastat A -0.033 | vemurafenib 0.006 | [5] 0.006 | [6] 0.036 | givinostat -0.11 | barasertib -0.003 | [7] 0.022 | volasertib 0.021 | [8] 0.024 | epoxomicin -0.024 | [9] -0.027 | [10] -0.001 | [11] 0.002 | rosiglitazone 0.014 | [12] -0.091 | [13] 0

PRC1 (UniProt O43663)
inactive: [1] 0.016

More records

PRDX4 (UniProt Q13162)
inactive: [1] 0.014 | [2] -0.024 | [3] -0.021 | [4] -0.013 | Nexturastat A -0.082 | vemurafenib -0.008 | [5] -0.018 | [6] -0.143 | givinostat -0.031 | barasertib 0.024 | [7] -0.001 | volasertib 0.055 | [8] -0.063 | epoxomicin 0.008 | [9] -0.001 | [10] -0.011 | [11] 0.007 | rosiglitazone -0.005 | [12] -0.07 | [13] 0.005
